This note sets out measurements from USRE49280.

Sequences of proteins named here, by UniProt entry; tags and fusion partners are left off. A change or cut given only in a name is not applied to a line headed by its entry.
UniProt P61812: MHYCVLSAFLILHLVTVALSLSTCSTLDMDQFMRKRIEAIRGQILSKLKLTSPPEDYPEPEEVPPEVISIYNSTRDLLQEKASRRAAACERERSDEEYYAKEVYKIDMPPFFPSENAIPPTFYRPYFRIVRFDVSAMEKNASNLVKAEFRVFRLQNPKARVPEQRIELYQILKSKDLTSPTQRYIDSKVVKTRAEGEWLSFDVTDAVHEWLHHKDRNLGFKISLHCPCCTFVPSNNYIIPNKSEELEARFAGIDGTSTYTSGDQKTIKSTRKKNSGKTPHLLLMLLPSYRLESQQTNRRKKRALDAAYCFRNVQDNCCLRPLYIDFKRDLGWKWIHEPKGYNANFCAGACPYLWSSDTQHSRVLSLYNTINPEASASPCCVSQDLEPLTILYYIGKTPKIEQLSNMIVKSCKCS

Assay [1] deals with TGF-β2 (UniProt P61812). The assay can be described thus: SPR, fusion injected over immobilised TGF-β2. Background: Surface plasmon resonance follows binding to a sensor surface in real time, without labels.
In assay [2] the target is TGF-β2 (UniProt P61812). The assay can be described thus: SPR.

These are yes or no findings as the source states them, for the method shown. Binding can be weak; no strength is given. Sequences can lack the tags named with a protein.

B1: RER (TβRII-TβRIIIE-TβRII) heterotrimeric fusion (designed binder)
chain: AAANGAVKFPQLCKFCDVRFSTCDNQKSCMSNCSITSICEKPQEVCVAVWRKNDENITLETVCHDPKLPYHDFILEDAASPKCIMKEKKKPGETFFMCSCSSDECNDNIIFSEEYNTSNPDGLGPVESSPGHGLDTAAAGPEPSTRCELSPINASHPVQALMESFTVLSGCASHGTTGLPREVHVLNLRSTDQGPGQRQREVTLHLNPIASVHTHHKPIVFLLNSPQPLVWRLKTERLAAGVPRLFLVSEGSVVQFPSGNFSLTAETEERNFPQENEHLLRWAQKEYGAVTSFTELKIARNIYIKVGEDQVFPPTCNIGKNFLSLNYLAEYLQPKAAEGCVLPSQPHEKEVHIIELITPSSNPYSAFQVDIIVDIRPAQEDPEVVKNLVLILKSKKSVNWVIKSFDVKGNLKVIAPNSIGFGKESERSMTMTKLVRDDIPSTQENLMKWALDAGYRPVTSYTMAPVANRFHLRLENNEEMRDEEVHTIPPELRILLDPDKLPQLCKFCDVRFSTCDNQKSCMSNCSITSICEKPQEVCVAVWRKNDENITLETVCHDPKLPYHDFILEDAASPKCIMKEKKKPGETFFMCSCSSDECNDNIIFSEEYNTSNPD
B1: the binding entry with TGF-β2 [1] and with TGF-β2 [2] was “binds” each time.
